Results on one substance are retold here after article PMC4347857, “Characterization of the Mycobacterial Acyl-CoA Carboxylase Holo Complexes Reveals Their Functional Expansion into Amino Acid Catabolism” (PLoS Pathogens, 2015).

By UniProt entry, the sequences of proteins in these tests, tags left out.
UniProt O86318: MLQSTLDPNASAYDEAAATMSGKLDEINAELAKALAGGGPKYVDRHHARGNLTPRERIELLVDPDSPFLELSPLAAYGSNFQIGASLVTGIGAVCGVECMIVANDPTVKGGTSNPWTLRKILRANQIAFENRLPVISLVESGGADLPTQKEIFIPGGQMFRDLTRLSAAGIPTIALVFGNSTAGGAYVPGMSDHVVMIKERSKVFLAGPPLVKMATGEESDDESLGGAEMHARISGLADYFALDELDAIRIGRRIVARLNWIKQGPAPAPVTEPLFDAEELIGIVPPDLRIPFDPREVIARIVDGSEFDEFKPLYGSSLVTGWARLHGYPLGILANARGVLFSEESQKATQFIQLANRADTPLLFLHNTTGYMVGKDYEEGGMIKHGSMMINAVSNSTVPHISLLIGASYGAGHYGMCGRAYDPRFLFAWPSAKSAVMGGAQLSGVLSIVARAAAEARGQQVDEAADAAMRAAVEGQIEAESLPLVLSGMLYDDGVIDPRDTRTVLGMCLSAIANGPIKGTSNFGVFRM
UniProt A5U114: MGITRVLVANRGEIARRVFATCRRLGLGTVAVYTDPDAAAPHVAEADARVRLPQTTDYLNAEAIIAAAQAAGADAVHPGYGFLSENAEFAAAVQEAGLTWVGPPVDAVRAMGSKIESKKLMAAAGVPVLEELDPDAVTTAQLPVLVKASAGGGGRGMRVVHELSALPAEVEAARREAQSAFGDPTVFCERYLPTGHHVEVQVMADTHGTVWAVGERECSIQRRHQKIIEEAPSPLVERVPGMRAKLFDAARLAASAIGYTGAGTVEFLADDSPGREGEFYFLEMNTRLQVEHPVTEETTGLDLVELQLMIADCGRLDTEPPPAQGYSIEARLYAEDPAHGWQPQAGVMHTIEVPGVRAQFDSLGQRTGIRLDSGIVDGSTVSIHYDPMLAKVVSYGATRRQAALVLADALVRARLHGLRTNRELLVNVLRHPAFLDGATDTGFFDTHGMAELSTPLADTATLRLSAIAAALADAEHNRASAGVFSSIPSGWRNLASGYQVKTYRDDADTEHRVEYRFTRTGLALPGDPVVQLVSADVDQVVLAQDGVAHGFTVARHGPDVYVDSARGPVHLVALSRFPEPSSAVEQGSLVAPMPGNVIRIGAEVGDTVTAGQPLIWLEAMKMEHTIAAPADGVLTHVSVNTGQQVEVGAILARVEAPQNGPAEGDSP

These are yes or no findings as the source states them, for the method shown. For some assays here: In cells and extracts the contact can be indirect. Some entries that bind do so weakly or less than the wild type.

Assay [1] has as its target M. tuberculosis AccD2 (RV0974c), His-tagged (M. tuberculosis) (UniProt O86318). The experiment in a line: SEC; both purified.
Assay [2] has the same target. Description: pull-down.

“M. tuberculosis AccA2 (Rv0973c) (from UniProt A5U114 1-667)”: the binding entry in assay [1] and in assay [2] was “binds” in each case.
